## Primary screen of a compound library

Amino acid sequences for entries named in this document (tags omitted).
UniProt P9WNZ1, whole entry: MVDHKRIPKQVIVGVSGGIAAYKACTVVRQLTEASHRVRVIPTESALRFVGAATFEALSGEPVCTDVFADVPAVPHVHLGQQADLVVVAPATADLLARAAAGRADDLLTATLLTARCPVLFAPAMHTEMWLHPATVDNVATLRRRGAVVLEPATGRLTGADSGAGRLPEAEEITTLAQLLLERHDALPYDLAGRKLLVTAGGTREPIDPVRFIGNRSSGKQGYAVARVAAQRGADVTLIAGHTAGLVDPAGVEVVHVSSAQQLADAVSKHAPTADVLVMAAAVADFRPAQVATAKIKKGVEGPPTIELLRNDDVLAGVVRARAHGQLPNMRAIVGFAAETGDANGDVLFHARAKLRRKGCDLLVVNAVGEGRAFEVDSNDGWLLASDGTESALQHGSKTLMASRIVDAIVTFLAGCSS

Results are given as percent effect. How 0% and 100% were set is not recorded. Most values in the screen are low, and negative values occur. This is an unselected part of the compounds tested.

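Coenzyme A biosynthesis protein CoaBC, Mycobacterium tuberculosis (UniProt P9WNZ1). Enzyme assay of CoaBC with a phosphate dye (Biomol Green) read at 650 nm. Concentration: 30 µM. Higher reads as stronger inhibition, judged from the few compounds that gave an IC50. Most strong results did not repeat in a second test. About 67,000 compounds were tested under these conditions; 0.06% (about 40) showed 50% or more at least once.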

structure,Percent Effect
Cc1cc(C)nc(N2CCN(Cc3nccn3C)CC2)n1,2.451
CC(C)N(C)CC(=O)N(C)C(c1cccc(F)c1)c1ccccn1 (centres unmarked),-0.2389
O=S(=O)(NCC1(O)CCOCC1)c1ccccc1Br,-5.708
CCC(CO)N(Cc1ccccn1)C(=O)c1ccc(C)c(Cl)c1 (centres unmarked),1.285
COCc1ncn(Cc2nc(-c3ccc(OC)c(OC)c3)oc2C)n1,4.391
CN1CCN(C)C(CNC(=O)N(C)Cc2ccc(Cl)c(F)c2)C1 (centres unmarked),-7.813
Cc1cnn(Cc2cc(F)ccc2F)c1NC(=O)C1CCOCC1,-0.369
Cc1cccc(OCCNC(=O)CN2CCN(C)CC2C)c1 (centres unmarked),6.6
O=C1CCOC[C@]2(CN(Cc3ccccc3)C[C@H]2c2ccccc2F)N1,10.27
C[C@]1(O)CCN(Cc2c[nH]cn2)C[C@@H]1Oc1cccc(F)c1,2.184
CNC(=O)c1cnc(/C=C/c2cc(OC)cc(OC)c2)s1,-3.52
Cc1ccccc1C(CNC(=O)CSc1nnc(N)s1)N(C)C (centres unmarked),-3.507
CCCN(CCS(C)(=O)=O)C1CCc2ccccc2C1 (centres unmarked),0
CC(C)n1nc(O)c2c1NC(=O)CSC2c1cnn(C)c1 (centres unmarked),1.772
CS(=O)(=O)NC[C@@H]1OC[C@H]2CN(C(=O)c3ccc[nH]3)CC[C@H]21,-25.25
CN(C)Cc1cncc2c1CCN(C1CCOCC1)C2,3.171
CN(Cc1ccncc1)CC(c1cccs1)N1CCOCC1 (centres unmarked),-0.6745
CN(C)C(=O)C1CCc2nnc(C(C)(C)C)n21 (centres unmarked),-7.895
Cc1cc(C)n(CCCN(C)c2cc(C3CC3)ncn2)n1,9.218
CN(Cc1ccsc1)C(=O)Nc1cccnc1N1CCCC1,-2.838
Cc1noc(C(C)C)c1C(=O)NCc1ccc2c(c1)OCCO2,-0.129
O=c1c(S(=O)(=O)N2CCCCC2)cccn1Cc1ccccc1Cl,3.255
CN(Cc1nc2c(cnn2C)c(=O)[nH]1)Cc1ccccc1Cl,7.789
CN(Cc1ccncn1)C(=O)CCC(=O)NC1CCCC1,2.589
COc1cccn(CC(=O)N2CCCC3(CCCCC3)C2)c1=O,-0.1211
CC(C)(C)C(O)CN1CCN(Cc2cccc(C#N)c2)CC1 (centres unmarked),5.992
CN(C)c1cccc(CNC(=O)Nc2cc(C#N)ccc2Cl)n1,10.54
Cn1nccc1NC(=O)c1cccc(CN2C[C@H]3CC[C@@H](C2)N3)c1,0.6053
COC(=O)CCC(=O)N1CCC2(CN(Cc3ccc(Cl)cc3)C2)C1,-2.222
N#CCCCn1cnc2c(F)cc(Br)cc2c1=O,-2.694
COc1ccc(C)nc1NC(=O)Cc1c(C)nn(C)c1C,-0.8917
CNC(=O)CC1CCN(C(=O)Nc2ccc(-c3cc[nH]n3)cc2)CC1,10.08
Cc1nc(CN(C)C2CCN(Cc3nnc(C4CC4)o3)C2)no1 (centres unmarked),-9.115
Cc1csc(N(C)C(=O)C(c2c(F)cccc2Cl)N(C)C)n1 (centres unmarked),4.628
COCCn1cc(C(=O)N2CCCC2c2cnn(C)c2)ccc1=O (centres unmarked),0
CCOc1ccc(-c2c(C#N)c(N)nc3c2COCC3)cn1,2.309
COc1nccnc1N1CCC2(CCCN(C(C)C)C2=O)C1 (centres unmarked),-2.479
CCC(NC(=O)NCc1nncn1CC)c1ccc(OC)cc1 (centres unmarked),-2.355
CNS(=O)(=O)c1ccc(CNC(=O)Nc2cn[nH]c2)cc1,7.908
CCN1CCc2[nH]cnc2C12CCN(c1ccc(Cl)c(C(=O)O)n1)CC2,-8.696
CCS(=O)(=O)N1CCc2c(COCc3ccncc3)cncc2C1,-0.4938
NC(=O)NCC(=O)N1C[C@H]2CC[C@@H]1CN(Cc1cscn1)C2,0
CSCC[C@H]1CN2CCC[C@H]2CN1Cc1cn(C)nc1C,4.833
Cc1cc(F)cc2c(N3CCC(S(N)(=O)=O)CC3)c(C#N)cnc12,4.28
c1ccc(-c2ccc(CN3CCOC(Cn4cncn4)C3)cc2)cc1 (centres unmarked),2.1
CCCN1CCC2(CC1)COc1ccccc1S(=O)(=O)N(CC1CC1)C2,5.514
COc1nn(C)c2c1CCCN(C(=O)c1cc[nH]n1)C2,6.941
NC(=O)c1cc(C2CCCN(Cc3ccc4c(c3)OCCO4)C2)n[nH]1 (centres unmarked),6.65
Cc1nc(CN2CCOC(Cn3cccn3)C2)nc2ccccc12 (centres unmarked),5.222
CCn1ccnc1CN1CCN(Cc2cccc(C#N)c2)CC1,7.653
O=C(C1CC1)N1CCCC(c2nc(O)cc(-c3ccncc3)n2)C1 (centres unmarked),0.9804
CNC(C(=O)N1CCC(c2nccn2C(C)C)CC1)c1ccccc1 (centres unmarked),6.393
NC(=O)NC(=O)C(c1ccccc1)N1CCN(Cc2ccc(Cl)s2)CC1 (centres unmarked),0.5741
CCc1nc2n(n1)CC(NCc1ccccc1OCC(=O)NC)CC2 (centres unmarked),-3.241
Cc1nccc(N2CCCC(C)(C(=O)NC3CCCC3)C2)n1 (centres unmarked),12.73
c1cc(CN2CCC[C@@H](Cn3nnc(-c4cnccn4)n3)C2)ccn1,0.7264
Cc1nc2sccn2c1C(=O)N1CCc2c(nc(N)[nH]c2=O)C1,-5.372
O=C(c1ccnnc1)N1CCN(Cc2ccncc2)c2ncccc2C1,0.1233
CC(C)c1nnc2n1CCN(C(=O)COc1ccc(C(N)=O)cc1)C2,0.6479
c1cncc(O[C@H]2COCCN(CC3CC3)C2)c1,8.609
CCOc1ccccc1OC1CCN(C(=O)c2[nH]nc(C)c2Br)CC1,-9.439
COc1ccccc1C(NC(=O)NC1CC1)c1noc(C)n1 (centres unmarked),-12.5
Cc1cnn(-c2ccc(S(N)(=O)=O)cc2F)c1,4.339
CC(C)C(C)(O)CNc1cccc(F)c1C#N (centres unmarked),5.934
Cc1nc2ccc(C(=O)N3CCn4c(nnc4C4CC4)C3)cc2nc1C,0.7282
CC(=O)Nc1nc(-c2ccc(C)c(C)c2)c[nH]1,-0.8783
CCC[C@@H]1CN(Cc2cnc3c(S(C)(=O)=O)cnn3c2)C[C@H]1N(C)C,11.41
O=C(Nc1cccc(C(F)(F)F)c1)N1CCN(CCn2ccnc2)CC1,-16.81

The first 8 entries again:

structure	Percent Effect
Cc1cc(C)nc(N2CCN(Cc3nccn3C)CC2)n1	2.451
CC(C)N(C)CC(=O)N(C)C(c1cccc(F)c1)c1ccccn1 (centres unmarked)	-0.2389
O=S(=O)(NCC1(O)CCOCC1)c1ccccc1Br	-5.708
CCC(CO)N(Cc1ccccn1)C(=O)c1ccc(C)c(Cl)c1 (centres unmarked)	1.285
COCc1ncn(Cc2nc(-c3ccc(OC)c(OC)c3)oc2C)n1	4.391
CN1CCN(C)C(CNC(=O)N(C)Cc2ccc(Cl)c(F)c2)C1 (centres unmarked)	-7.813
Cc1cnn(Cc2cc(F)ccc2F)c1NC(=O)C1CCOCC1	-0.369
Cc1cccc(OCCNC(=O)CN2CCN(C)CC2C)c1 (centres unmarked)	6.6

From ChEMBL document CHEMBL3988442, “University of Dundee, Small-Polar-MMV Screening Library” (2021).